Reference: patent US20260139030A1
No constants are given. Whether binding was seen depends on the method and setting. A result given as binding can be weak or reduced; the word gives no strength. Where a sequence is shown, tags or fusion partners need not be part of it.

How the values were obtained:
Galectin-9 [1] = test: MSD ELISA (legend of FIG. 5H)
Galectin-9 [2] = test: MSD ELISA: Galectin-9 coated, protein titrated, SULFO-TAG anti-mouse antibody detection (FIG. 5H)
[3] = target: Inter-α-inhibitor heavy chain 4 (ITIH4); test: MSD ELISA (legend of FIG. 5K)
[4] = target: hyaluronan binding protein 1 (HABP1); test: MSD ELISA (legend of FIG. 5L)
[5] = target: carcinoembryonic antigen-related cell adhesion molecule 1 (CEACAM1); test: MSD ELISA (legend of FIG. 5M)
[6] = target: Inter-α-inhibitor heavy chain 4 (ITIH4); test: MSD ELISA: ITIH4 coated, protein titrated, SULFO-TAG anti-mouse antibody detection (FIG. 5K)
[7] = target: hyaluronan binding protein 1 (HABP1); test: MSD ELISA: HABP1 coated, protein titrated, SULFO-TAG anti-mouse antibody detection (FIG. 5L)
[8] = target: carcinoembryonic antigen-related cell adhesion molecule 1 (CEACAM1); test: MSD ELISA: CEACAM1 coated, protein titrated, SULFO-TAG anti-mouse antibody detection (FIG. 5M)

Measured: binding

B1: mouse TNFR2-Fc-Clec7a chimeric protein (Fc fusion)
chain: VPAQVVLTPYKPEPGYECQISQEYYDRKAQMCCAKCPPGQYVKHFCNKTSDTVCADCEASMYTQVWNQFRTCLSCSSSCTTDQVEIRACTKQQNRVCACEAGRYCALKTHSGSCRQCMRLSKCGPGFGVASSRAPNGNVLCKACAPGTFSDTTSSTDVCRPHRICSILAIPGNASTDAVCAPESPTLSAIPRTLYVSQPEPTRSQPLDQEPGPSQTPSILTSLGSTPIIEQSTKGGVPRDCGCKPCICTVPEVSSVFIFPPKPKDVLTITLTPKVTCVVVDISKDDPEVQFSWFVDDVEVHTAQTQPREEQFNSTFRSVSELPIMHQDWLNGKEFKCRVNSAAFPAPIEKTISKTKGRPKAPQVYTIPPPKEQMAKDKVSLTCMITDFFPEDITVEWQWNGQPAENYKNTQPIMDTDGSYFVYSKLNVQKSNWEAGNTFTCSVLHEGLHNHHTEKSLSHSPGKIEGRMDGHNSGRNPEEKDNFLSRNKENHKPTESSLDEKVAPSKASQTTGGFSQPCLPNWIMHGKSCYLFSFSGNSWYGSKRHCSQLGAHLLKIDNSKEFEFIESQTSSHRINAFWIGLSRNQSEGPWFWEDGSAFFPNSFQVRNTAPQESLLHNCVWIHGSEVYNQICNTSSYSICEKEL
binds: Galectin-9 [1] | Galectin-9 [2]

B2: mouse TNFR2-Fc-Langerin chimeric protein (Fc fusion)
chain: VPAQVVLTPYKPEPGYECQISQEYYDRKAQMCCAKCPPGQYVKHFCNKTSDTVCADCEASMYTQVWNQFRTCLSCSSSCTTDQVEIRACTKQQNRVCACEAGRYCALKTHSGSCRQCMRLSKCGPGFGVASSRAPNGNVLCKACAPGTFSDTTSSTDVCRPHRICSILAIPGNASTDAVCAPESPTLSAIPRTLYVSQPEPTRSQPLDQEPGPSQTPSILTSLGSTPIIEQSTKGGVPRDCGCKPCICTVPEVSSVFIFPPKPKDVLTITLTPKVTCVVVDISKDDPEVQFSWFVDDVEVHTAQTQPREEQFNSTFRSVSELPIMHQDWLNGKEFKCRVNSAAFPAPIEKTISKTKGRPKAPQVYTIPPPKEQMAKDKVSLTCMITDFFPEDITVEWQWNGQPAENYKNTQPIMDTDGSYFVYSKLNVQKSNWEAGNTFTCSVLHEGLHNHHTEKSLSHSPGKIEGRMDQAVFYPRLMGKILDVKSDAQMLKGRVDNISTLGSDLKTERGRVDDAEVQMQIVNTTLKRVRSQILSLETSMKIANDQLQILTMSWGEVDSLSAKIPELKRDLDKASALNTKVQGLQNSLENVNKLLKQQSDILEMVARGWKYFSGNFYYFSRTPKTWYSAEQFCISRKAHLTSVSSESEQKFLYKAADGIPHWIGLTKAGSEGDWYWVDQTSFNKEQSRRFWIPGEPNNAGNNEHCANIRVSALKCWNDGPCDNTFLFICKRPYVQTTE
binds: Galectin-9 [1] | Galectin-9 [2]

B3: mouse TNFR2-Fc-DC-SIGN chimeric protein (Fc fusion)
chain: VPAQVVLTPYKPEPGYECQISQEYYDRKAQMCCAKCPPGQYVKHFCNKTSDTVCADCEASMYTQVWNQFRTCLSCSSSCTTDQVEIRACTKQQNRVCACEAGRYCALKTHSGSCRQCMRLSKCGPGFGVASSRAPNGNVLCKACAPGTFSDTTSSTDVCRPHRICSILAIPGNASTDAVCAPESPTLSAIPRTLYVSQPEPTRSQPLDQEPGPSQTPSILTSLGSTPIIEQSTKGGVPRDCGCKPCICTVPEVSSVFIFPPKPKDVLTITLTPKVTCVVVDISKDDPEVQFSWFVDDVEVHTAQTQPREEQFNSTFRSVSELPIMHQDWLNGKEFKCRVNSAAFPAPIEKTISKTKGRPKAPQVYTIPPPKEQMAKDKVSLTCMITDFFPEDITVEWQWNGQPAENYKNTQPIMDTDGSYFVYSKLNVQKSNWEAGNTFTCSVLHEGLHNHHTEKSLSHSPGKIEGRMDVKVYKIPSSQEENNQMNVYQELTQLKAGVDRLCRSCPWDWTHFQGSCYFFSVAQKSWNDSATACHNVGAQLVVIKSDEEQNFLQQTSKKRGYTWMGLIDMSKESTWYWVDGSPLTLSFMKYWSKGEPNNLGEEDCAEFRDDGWNDTKCTNKKFWICKKLSTSCPSK
binds: all assays above
